Data: PMC8373142
Results are given in words; binding and its absence hold for the method and conditions named. In cells and extracts the contact can be indirect. Some binding calls cover weakened binding; strength is not graded here. Sequences can lack the tags named with a protein.

target: T1, Tpk1, chromosomal TAP-fusion (S. cerevisiae) (UniProt P06244); test: co-IP; chromosomal TAP-fusion of Tpk1 precipitated with calmodulin beads from yeast extracts with exogenous HA-tagged Nej1 (wild-type, S298A, S298E) or Dun1; blot anti-HA; no detergent in the buffer, gentle disruption with glass beads; cells treated with or without bleomycin
T1 sequence: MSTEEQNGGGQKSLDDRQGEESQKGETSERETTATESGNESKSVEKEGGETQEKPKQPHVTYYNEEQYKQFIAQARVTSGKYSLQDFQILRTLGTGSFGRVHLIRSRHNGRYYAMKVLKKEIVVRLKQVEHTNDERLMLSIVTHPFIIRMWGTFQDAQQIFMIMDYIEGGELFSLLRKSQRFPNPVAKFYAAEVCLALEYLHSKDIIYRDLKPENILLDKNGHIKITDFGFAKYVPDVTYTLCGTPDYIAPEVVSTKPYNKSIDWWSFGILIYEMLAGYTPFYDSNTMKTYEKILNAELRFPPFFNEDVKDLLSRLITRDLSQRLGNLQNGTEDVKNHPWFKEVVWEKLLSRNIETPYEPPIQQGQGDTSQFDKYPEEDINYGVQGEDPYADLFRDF

Binder | binding
HA-tagged Nej1 S298E (protein, UniProt Q06148 1-342) MDSELKGQQLSDAEWCVKKINGEGNCLLLFLPMSSPTTIVMIVLVSLERLVPYVFKLSQTQLSQQCQSQGFTDSISLNLIKLKLMDILQAPQEINQIGLVDSNLVFSFDVSADITVSINSVPSHVTKDMFYMILQSLCMLLLKLVNLSTQYHYVQRDILNEKQKCLDFLLISLRDLDGGSKVISQWAPENSKNYESLQQCTDDDIIKKLLHKGKFQHQEFLADSLKTLLSLRNKFQDVSRFEESGELNKKERVRFPAVNHFYNDDFELQADPTNEARPNSRGKIKPKTDFKPKSRESETSSQLRLENFSESEATPEKTKSSSSLVEEYPQKKRKFGKVRIKN | binds
HA-tagged Dun1 (enzyme, UniProt P39009 1-513) MSLSTKREHSGDVTDSSFKRQQRSNKPSSEYTCLGHLVNLIPGKEQKVEITNRNVTTIGRSRSCDVILSEPDISTFHAEFHLLQMDVDNFQRNLINVIDKSRNGTFINGNRLVKKDYILKNGDRIVFGKSCSFLFKYASSSSTDIENDDEKVSSESRSYKNDDEVFKKPQISATSSQNATTSAAIRKLNKTRPVSFFDKYLLGKELGAGHYALVKEAKNKKTGQQVAVKIFHAQQNDDQKKNKQFREETNILMRVQHPNIVNLLDSFVEPISKSQIQKYLVLEKIDDGELFERIVRKTCLRQDESKALFKQLLTGLKYLHEQNIIHRDIKPENILLNITRRENPSQVQLGPWDEDEIDIQVKIADFGLAKFTGEMQFTNTLCGTPSYVAPEVLTKKGYTSKVDLWSAGVILYVCLCGFPPFSDQLGPPSLKEQILQAKYAFYSPYWDKIDDSVLHLISNLLVLNPDERYNIDEALNHPWFNDIQQQSSVSLELQRLQITDNKIPKTYSELSCL | binds
HA-tagged Nej1 S298A (protein, UniProt Q06148 1-342) MDSELKGQQLSDAEWCVKKINGEGNCLLLFLPMSSPTTIVMIVLVSLERLVPYVFKLSQTQLSQQCQSQGFTDSISLNLIKLKLMDILQAPQEINQIGLVDSNLVFSFDVSADITVSINSVPSHVTKDMFYMILQSLCMLLLKLVNLSTQYHYVQRDILNEKQKCLDFLLISLRDLDGGSKVISQWAPENSKNYESLQQCTDDDIIKKLLHKGKFQHQEFLADSLKTLLSLRNKFQDVSRFEESGELNKKERVRFPAVNHFYNDDFELQADPTNEARPNSRGKIKPKTDFKPKSRESATSSQLRLENFSESEATPEKTKSSSSLVEEYPQKKRKFGKVRIKN | binds
